± gives the standard deviation of the averaged measurements. Some of the results follow. Repeats are few or missing, and single values can be far off.

The experiment relates to RAW 264.7 macrophages infected with S. aureus JE2-lux. Nature of the experiment: host macrophage viability (CellTiter-Fluor) relative to DMSO vehicle; higher = more viable host cells. As to conditions: 10 µM; treatment time 4 h; gentamicin 50 µg/ml.
Regarding `Cn1c(CN2CCOCC2)nc2cc(NC(=O)C3(C)CCCO3)ccc21` (stereo unspecified), the host macrophage viability was determined as 96.5%.
The result for `O=C(CC1C(=O)N(c2ccc(F)cc2)C(=O)N1NC(=O)c1ccccc1)NCc1ccccc1` (stereo unspecified) reads 128%; that for `Cc1cc2cc(CNC(=O)NC3CCCCC3)ccc2[nH]1`, 110 ± 0.35%.
On to `CC1Cc2nc(SCC(=O)NCC3CCCO3)n(C)c(=O)c2S1` (stereo unspecified), for which the host macrophage viability was 119%.
The result for `CS(=O)(=O)c1ccc2nc(NC(=O)c3ccccc3[N+](=O)[O-])sc2c1` reads 110%; that for `Cc1nn(C)c(C)c1CNC(=O)Cn1c(=O)c(=O)n(Cc2ccncc2)c2ncccc21`, 146%; that for `CCOc1ccc(NC(=O)c2sc3nc4c(cc3c2N)C(=O)CC(C)(C)C4)cc1`, 99.9%.
Turning to `Cc1cc(NC(=O)COc2ccc3ccccc3c2)nc2c1c(=O)oc1ccccc12`, the host macrophage viability came out at 119%.
The result for `CCOc1ccc(CCNC(=O)c2nnn(CC(=O)Nc3cc(C)cc(C)c3)c2N)cc1OCC` reads 131%; that for `O=C(N/N=C/c1c(F)cccc1Cl)c1n[nH]c2c1CCC2`, 99.9%.
On to `COc1ccc(S(=O)(=O)NC(=N)NCCc2c[nH]c3ccc(F)cc23)cc1`, for which the host macrophage viability stood at 128%.
The result for `COc1cc(Nc2cc(C)nc3ncnn23)cc(OC)c1` reads 98.6%; that for `O=C(CSc1nc(-c2ccccc2)no1)Nc1ccccc1Cl`, 114%.
Turning to `CC1CCCN(c2ccc3cccc(OCC(=O)Nc4ccc5c(c4)OCO5)c3n2)C1` (stereo unspecified), the host macrophage viability is 127%.
For `CCOc1ccc2c(c1)c(=O)c(C(=O)c1ccccc1)cn2CC(=O)Nc1cccc(OC)c1`, the host macrophage viability is 108%.
The result for `NC(=O)COC(=O)c1cccc2c1-c1ccccc1C2=O` reads 137%.
Then `O=C(Nc1nnc(-c2ccc(Br)cc2)s1)C1CC1`, with 124%; and `O=C(CCn1cnc(-c2ccccc2)c1-c1ccccc1)N/N=C/c1ccco1`, with 107%.
Then `Cc1cccc(-c2nc3n(CC(=O)N(CCO)Cc4ccccc4)c(C)cc(=O)n3n2)c1`, with 121%.
As to `COc1ccc(N2CCN(Cc3nc4c(c(=O)n(C)c(=O)n4C)n3CC(C)=O)CC2)cc1`, the host macrophage viability stood at 114%.
`CCCCOC(=O)c1ccc(Nc2ncnc3c2cnn3-c2ccccc2)cc1`: the host macrophage viability stood at 78.6%.
The result for `CC(=O)Oc1ccccc1C(=O)Oc1ccc(/C=N\n2cnnc2)cc1` reads 125%; that for `Cc1ccc(CN2C3CCCC2CC(NC(=O)NCc2ccccc2)C3)cc1` (stereo unspecified), 125%; that for `COc1ccc2c(c1)s/c(=N\C(=O)CSCC(=O)N1CCc3ccccc31)n2C`, 119%.
For the compound `NC(=O)c1ccc(NC(=O)C(=O)Nc2cccc(N3CCCC3=O)c2)cc1`, the host macrophage viability was 107%.
Then `N#C/C(=C\c1ccc(-c2ccc([N+](=O)[O-])cc2)o1)c1nc(-c2cccs2)cs1`, with 111%; and `CCOC(=O)c1oc2ccccc2c1NC(=O)Cc1cccs1`, with 115 ± 1.9%; and `Cc1nnc2ccc(-n3ncc4c3NC(=O)CC4c3ccccc3OC(C)C)nn12` (stereo unspecified), with 106%.
The result for `C[C@@H]1CN(Cc2ccccc2F)CCN1CC(=O)N1CC(=O)Nc2ccccc21` reads 107%.
Regarding `O=C(CSc1nc(=O)n(CC2CCCO2)c2c1CCCC2)Nc1nc2ccccc2s1` (stereo unspecified), the host macrophage viability is 111%.
Regarding `O=C(NNc1nc2cc3c(cc2s1)OCCO3)c1ccccc1`, the host macrophage viability came to 105 ± 9.4%.
Turning to `Cn1c(=O)[nH]c2cc(-c3noc(CNS(=O)(=O)c4ccccc4)n3)ccc21`, the host macrophage viability came to 145%.
On to `Cc1c(NC(=O)c2cc(-c3ccccc3)on2)c(=O)n(-c2ccccc2)n1C`, for which the host macrophage viability amounted to 113%.
The result for `CCOC(=O)N1CCN(C(=O)CSc2nc3c(c(=O)n2-c2cccc(OC)c2)SCC3)CC1` reads 103%.
In the case of `O=C(Nc1cnc(N2CCN(c3ccccn3)CC2)c(C(=O)O)c1)c1ccc(F)cc1`, the host macrophage viability was determined as 124%.
Then `Cc1cc(=O)[nH]c2c(C)cc(S(=O)(=O)NC3CCCCC3)cc12`, with 138%.
For the compound `O=C(CN1C(=O)c2ccccc2S1(=O)=O)Nc1nccs1`, the host macrophage viability came out at 129%.
Turning to `Cc1ccc(NS(=O)(=O)c2ccc3[nH]c(=O)[nH]c3c2)cc1C`, the host macrophage viability is 122%.
Then `COc1ccc(/C=C2\SC(=S)N(CCC(=O)Nc3ccc(C(=O)O)c(O)c3)C2=O)cc1OC`, with 118%.
The result for `Nc1ccc(Cc2ccc(N)c([N+](=O)[O-])c2)cc1[N+](=O)[O-]` reads 103%; that for `CC(C(=O)N1CCCC1)C1CCN(C(=O)c2cc3cc(Cl)ccc3[nH]2)CC1` (stereo unspecified), 108%; that for `CC(=O)C1C(c2ccc(OC(F)F)cc2)NC(=O)NC1(O)C(F)(F)F` (stereo unspecified), 126%.
With `COc1ccc(-c2[nH]c3ccccc3c2SCCNC(C)=O)cc1`, the host macrophage viability was found to be 117%.
Then `Cc1ccc(C)c(CSc2nc(=O)n3cc(Cl)ccc3n2)c1`, with 110%; and `CCC(=O)Nc1ccc2nc(SCc3cc(=O)n4nc(-c5ccccc5)[nH]c4n3)sc2c1`, with 127%; and `CCc1cc2c(N(CC)c3ccccc3)ncnc2s1`, with 140%.
For the compound `O=C(CCCS(=O)(=O)c1ccccc1)Nc1nc2c(cc3c4c(cccc42)CC3)s1`, the host macrophage viability came out at 86.6%.
The result for `O=C(Nn1cnc2c(cnn2-c2ccccc2)c1=O)c1ccc(F)c(F)c1` reads 124%.
Then `Cc1ccc(NS(=O)(=O)c2cc(-c3cc(C(F)(F)F)on3)cs2)c(Br)c1`, with 122%; and `Cc1ccc(CNC(=O)c2cc(-c3ccccn3)[nH]n2)cc1`, with 122%; and `CCOc1ccc(NC=C(S(=O)(=O)c2ccccc2)S(=O)(=O)c2ccccc2)c([N+](=O)[O-])c1`, with 99.3%.
In the case of `CCS(=O)(=O)Nc1cccc(C(=O)CC2(O)C(=O)Nc3ccc(Br)cc32)c1` (stereo unspecified), the host macrophage viability was 109%.
The result for `Cn1ccnc1CNS(=O)(=O)c1ccc2c(c1)c(=O)n(C)c(=O)n2C` reads 114%.
The result for `Cc1ccc(C(=O)N2CCC(O)CC2)c(N2CCN(C(=O)c3ccco3)CC2)n1` reads 106%; that for `COc1cccc(NC(=O)N(Cc2cc3cccc(C)c3nc2Cl)C2CCCCC2)c1`, 119%; that for `CCN(C(=O)CCc1nc(-c2nn(-c3ccc(Cl)cc3)c(=O)n(C)c2=O)no1)c1ccccc1C`, 107%.
Then `Nc1ncnc(N2CCc3ccccc32)c1[N+](=O)[O-]`, with 102%.
Take `COc1ccc(-c2nsc3c(SCC(=O)NCc4cccs4)ncnc23)cc1`: the host macrophage viability was found to be 146%.
With `CCOc1ccc(Nc2nc3c(C)cccn3c(=O)c2C=O)cc1`, the host macrophage viability is 115%.
For the compound `CCCN1CCN(c2ncnc3sc(C(=O)NCc4ccc5c(c4)OCO5)c(C)c23)CC1`, the host macrophage viability worked out at 122%.
For the compound `CSC1=C(C#N)C2(CCCCC2)C(c2nc(-c3ccc(C)cc3)cs2)C(=N)N1` (stereo unspecified), the host macrophage viability amounted to 111%.
Take `Cn1cnc(S(=O)(=O)N2CCC(c3nnc(C(=O)Nc4ccccc4)s3)CC2)c1`: the host macrophage viability was 123%.
Then `O=C(CCCC1=Nc2ccccc2S(=O)(=O)N1)OCc1ccc(F)cc1`, with 97.3%; and `O=C(CSc1nc(=O)[nH]c2c1CCC2)N1CCCC1`, with 121%; and `O=c1[nH]cc(S(=O)(=O)N2CCN(Cc3ccccc3)CC2)c(=O)[nH]1`, with 112%.
As to `CCOC(=O)c1cnc(SCC(=O)NNC(C)=O)nc1N`, the host macrophage viability turned out to be 116%.
For the compound `Cc1ccc(-c2csc(-c3cccn3CC(=O)NCc3cccc(Br)c3)n2)cc1`, the host macrophage viability was 112%.
In the case of `COc1cc(CSc2nc(=O)n3cc(C)ccc3n2)cc(OC)c1`, the host macrophage viability was 131%.
Then `COc1cccc2c(=O)n(CC(=O)NCc3ccc(F)cc3)ccc12`, with 116%; and `C=CCn1/c(=N/C(=O)CN2C(=O)CCC2=O)sc2cc(C(=O)OC)ccc21`, with 108%.
The result for `COc1ccc(C2CC(c3cccs3)=NN2C(=O)Cn2cnc3c(cnn3CCO)c2=O)cc1` (stereo unspecified) reads 120%; that for `Cc1cccc(NC(=O)CSc2ncc(S(=O)(=O)c3ccc(C)c(C)c3)c(N)n2)c1`, 122%; that for `Cn1c(=O)c2c(SCC(=O)NCc3ccc4c(c3)OCO4)ccnc2n(C)c1=O`, 131%.
Then `Brc1cccc2sc(N3CCc4ccccc4C3)nc12`, with 98.3 ± 5.2%; and `Cc1ccnc(N2CCCC(C(=O)Nc3ccccc3-c3ccccc3)C2)n1` (stereo unspecified), with 118%.
On to `CCOc1ccc(-c2noc(Cn3ncn4nc(-c5ccc(OC)cc5)cc4c3=O)n2)cc1OC`, for which the host macrophage viability came to 102%.
The result for `Cc1cccc(S(=O)(=O)NCCOc2ccc(-c3ccc(F)cc3)nn2)c1` reads 101%; that for `CCN1C(=O)c2cccc3c(NC(=O)CN4C(=O)c5ccccc5C4=O)ccc1c23`, 114%.
Turning to `Cc1ccc(-n2ncc3c(SCC(=O)Nc4nnc(C)s4)ncnc32)c(C)c1`, the host macrophage viability was 99.1%.
Regarding `Cc1cc(C)cc(NS(=O)(=O)c2c[nH]c(=O)[nH]c2=O)c1`, the host macrophage viability was determined as 119%.
The result for `COc1ccc(NC(=S)N2CCC(n3cnc4ccccc43)CC2)c(OC)c1` reads 112%.
On to `O=C(O)CCN1C(=O)/C(=C/c2cc([N+](=O)[O-])ccc2OCc2ccccc2Cl)SC1=S`, for which the host macrophage viability was 108%.
The result for `O=C(Nc1cc(Cl)cc(Cl)c1)c1ccc(S(=O)(=O)N2CCCCCC2)cc1` reads 88.9%; that for `O=C(NCc1ccc2[nH]c3c(c2c1)CCCC3)NC1CCCCC1`, 144 ± 37%; that for `COc1cccc(NC(=O)CSc2nnc3ccccn23)c1`, 104%.
For `COc1ccc(CCNC(=O)CSc2nc3sc4c(c3c(=O)[nH]2)CCC4)cc1OC`, the host macrophage viability amounted to 127%.
Then `CCn1cccc1-c1nc(C)c(C(=O)Nc2cc(C)cc(C)c2)s1`, with 111%.
With `COC(=O)c1cccc(Oc2nnc(-c3ccc(F)cc3)c3ccccc23)c1`, the host macrophage viability worked out at 117 ± 12%.
Then `CCOc1ccc2[nH]c(=O)c(CN(Cc3cccnc3)C(=O)Nc3ccccc3F)cc2c1`, with 124%.
In the case of `Fc1ccc(-c2csc3ncnc(NCC4CCCO4)c23)cc1` (stereo unspecified), the host macrophage viability was 149%.
Then `C=CCn1/c(=N/C(=O)CSCC(=O)N2CCN(C(=O)OCC)CC2)sc2cc(Cl)ccc21`, with 120%; and `Cc1c(-c2n[nH]c(=S)n2C)sc2nc3n(c(=O)c12)CCC3`, with 120%.
For `Cc1nc2sc(C(c3cccs3)N3CCN(CCO)CC3)c(O)n2n1` (stereo unspecified), the host macrophage viability was determined as 102 ± 2.3%.
`CCn1nc(C)c(C(=O)NCCn2nc3c(C)cc4ccc(C)cc4n3c2=O)c1C`: the host macrophage viability is 115%.
On to `COc1ccc(NC(=O)CSc2nc(=O)n(CCN3CCOCC3)c3c2CCC3)cc1OC`, for which the host macrophage viability came out at 130%.
Take `COc1cc(C)c(S(=O)(=O)Nc2cccc(-n3c(C)nc4ccccc4c3=O)c2)cc1C`: the host macrophage viability was 120%.
The result for `CC(C)N1C(=O)/C(=C2/C(=O)N(CC(=O)Nc3ccccc3F)c3ccccc32)SC1=S` reads 101%; that for `CC(=O)NNC(=O)CSc1nc2sc3c(c2c(=O)[nH]1)CCC(C(C)(C)C)C3` (stereo unspecified), 83%.
`CCOc1ccc(OCC)c(NS(=O)(=O)c2ccc3onc(C(=O)N4CCCC4)c3c2)c1`: the host macrophage viability came out at 105%.
Take `COc1cccc(-c2csc(/C(C#N)=C\Nc3ccc([N+](=O)[O-])cc3)n2)c1`: the host macrophage viability turned out to be 119 ± 9.9%.
As for `CC(=O)Nc1ccc2nc(C)n(CC(=O)Nc3ccc(F)cc3)c(=O)c2c1`, the host macrophage viability came to 123%.

These data come from the supplement of paper PMC12578635.
